In PubChem BioAssay AID252 (DTP/NCI, 2004):
The list is a part of this screen's results and no random one: it is rich in T/C values a quarter to a half above the control, in often repeated tests (any T/C) and in doses without a T/C. Other doses and runs of a compound stand elsewhere. T/C is the treated group as % of the vehicle group. Some doses have a count of surviving animals in place of a T/C: the source holds a T/C of zero for them, seemingly a mark for toxic or unscored doses. Some survivor counts are full or nearly so, which does not show that the dose was tolerated: the source hardly ever lists a survival T/C far under the control, and the zero likely stands for such cases as well. Survivors were counted at the toxicity check, usually on the fifth day, unless a day is given; later deaths do not show. Schedules are NCI's codes, read here as Q, the interval in days (D) or hours (H), X, the number of doses. Some schedules carry Z or #; the key to these is not given. Where survival is the endpoint, the PubChem record calls one and a half times the control and up active, and a quarter to a half above the control has no call in these data; cut-offs in other NCI protocols can differ. Some entries were tested several times; their values stand side by side, smallest first. Some T/C values are followed by the survivors on the day toxicity was checked, most often the fifth; without a count, all were alive then.

Tested on: BDF1 mice, intracerebral L1210 leukemia, survival T/C
Test: NCI In Vivo Anticancer Drug Screen. Data for tumor model L1210 Leukemia (intracerebral) in B6D2F1 (BDF1) mice
Details: higher T/C = longer survival
Procedure, shortened: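 Antitumour effect is judged in mice with transplanted tumour by comparing survival of treated (T) against vehicle-dosed (C) groups as T/C.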

[1] = T/C endpoint: mean survival time, dose: 500.0 mg/kg/injection, schedule: Q01DX Z (ip), vehicle: saline
[2] = T/C endpoint: mean survival time, dose: 150.0 mg/kg/injection, schedule: Q01DX001 (ip), vehicle: carboxymethylcellulose (CMC)

C[C@H]1CN1C1=CC(=O)C(N2C[C@@H]2C)=CC1=O
survivor count (T/C endpoint: mean survival time, dose: 16.0 mg/kg/injection, schedule: Q01DX009 (ip), vehicle: saline): 6 of 6 | survivor count (T/C endpoint: mean survival time, dose: 32.0 mg/kg/injection, schedule: Q01DX009 (ip), vehicle: saline): 0 of 6 | survivor count (T/C endpoint: mean survival time, dose: 64.0 mg/kg/injection, schedule: Q01DX009 (ip), vehicle: saline): 0 of 6

O=NN(CCF)C(=O)NC1CS(=O)(=O)CS(=O)(=O)C1
T/C (T/C endpoint: mean survival time, dose: 37.0 mg/kg/injection, schedule: Q01DX001 (ip), vehicle: other): 130 % of control | T/C (T/C endpoint: mean survival time, dose: 56.0 mg/kg/injection, schedule: Q01DX001 (ip), vehicle: other): 127 % of control [9 of 10 alive]

CC(=O)Nc1ccc2c(Nc3ccc(NS(C)(=O)=O)cc3)c3ccccc3nc2c1
survivor count (T/C endpoint: mean survival time, dose: 12.5 mg/kg/injection, schedule: Q01DX009 (ip), vehicle: saline): 10 of 10 | survivor count (T/C endpoint: mean survival time, dose: 25.0 mg/kg/injection, schedule: Q01DX009 (ip), vehicle: saline): 9 of 10 | survivor count (T/C endpoint: mean survival time, dose: 25.0 mg/kg/injection, schedule: Q01DX009 (sc), vehicle: saline): 10 of 10

O=c1cnn(C2OC(CO)C(O)C2O)c(=O)[nH]1 (stereo not drawn)
T/C (T/C endpoint: mean survival time, dose: 125.0 mg/kg/injection, schedule: Q01DX Z (ip), vehicle: saline): 143 % of control | T/C (T/C endpoint: mean survival time, dose: 250.0 mg/kg/injection, schedule: Q01DX Z (ip), vehicle: saline): 146 % of control | T/C [1]: 148 % of control | T/C (T/C endpoint: mean survival time, dose: 1000.0 mg/kg/injection, schedule: Q01DX Z (ip), vehicle: saline): 139 % of control

C[n+]1ccc(Nc2ccc(NC(=O)c3ccc(Nc4cc[n+](C)c5ccc(N)cc45)cc3)cc2)cc1
T/C (T/C endpoint: mean survival time, dose: 16.0 mg/kg/injection, schedule: Q01DX009 (ip), vehicle: Klucel (hydroxypropylcellulose) (HPC)): 130 % of control

Nc1n[nH]c(N)n1
T/C [1]: 125 % of control | T/C (T/C endpoint: mean survival time, dose: 500.0 mg/kg/injection, schedule: Q03HX024 (ip), vehicle: saline): 128 % of control

O=C(Nc1ccc(C2=NCCCN2)cc1)c1ccc(C(=O)Nc2ccc(C3=NCCCN3)cc2)cc1
T/C (T/C endpoint: mean survival time, dose: 10.0 mg/kg/injection, schedule: Q01DX Z (ip), vehicle: carboxymethylcellulose (CMC)): 125 % of control | survivor count (T/C endpoint: mean survival time, dose: 20.0 mg/kg/injection, schedule: Q01DX Z (ip), vehicle: carboxymethylcellulose (CMC)): 1 of 6 | survivor count (T/C endpoint: mean survival time, dose: 62.0 mg/kg/injection, schedule: Q01DX Z (ip), vehicle: carboxymethylcellulose (CMC)): 1 of 6 | survivor count (T/C endpoint: mean survival time, dose: 125.0 mg/kg/injection, schedule: Q01DX Z (ip), vehicle: carboxymethylcellulose (CMC)): 0 of 6 | survivor count (T/C endpoint: mean survival time, dose: 250.0 mg/kg/injection, schedule: Q01DX Z (ip), vehicle: carboxymethylcellulose (CMC)): 0 of 6 | survivor count (T/C endpoint: mean survival time, dose: 500.0 mg/kg/injection, schedule: Q01DX Z (ip), vehicle: carboxymethylcellulose (CMC)): 0 of 6

COc1ccc(NC(=O)N(C)N=O)cc1
survivor count [2]: 10 of 10

O=NN(CCCl)C(=O)N[C@@H]1CCCC[C@H]1NC(=O)N(CCCl)N=O
T/C (T/C endpoint: mean survival time, dose: 67.0 mg/kg/injection, schedule: Q01DX001 (ip), vehicle: carboxymethylcellulose (CMC)): 129 % of control | T/C (T/C endpoint: mean survival time, dose: 72.0 mg/kg/injection, schedule: Q01DX001 (ip), vehicle: carboxymethylcellulose (CMC)): 133 % of control | T/C (T/C endpoint: mean survival time, dose: 100.0 mg/kg/injection, schedule: Q01DX001 (ip), vehicle: carboxymethylcellulose (CMC)): 138 % of control | T/C (T/C endpoint: mean survival time, dose: 108.0 mg/kg/injection, schedule: Q01DX001 (ip), vehicle: carboxymethylcellulose (CMC)): 133 and 134 % of control | T/C [2]: 146 % of control | T/C (T/C endpoint: mean survival time, dose: 160.0 mg/kg/injection, schedule: Q01DX001 (ip), vehicle: carboxymethylcellulose (CMC)): 129 and 135 % of control | T/C (T/C endpoint: mean survival time, dose: 225.0 mg/kg/injection, schedule: Q01DX001 (ip), vehicle: carboxymethylcellulose (CMC)): 138, 147, 148 % of control | T/C (T/C endpoint: mean survival time, dose: 240.0 mg/kg/injection, schedule: Q01DX001 (ip), vehicle: carboxymethylcellulose (CMC)): 141 % of control | survivor count (T/C endpoint: mean survival time, dose: 337.0 mg/kg/injection, schedule: Q01DX001 (ip), vehicle: carboxymethylcellulose (CMC)): 6 of 6 | T/C (T/C endpoint: mean survival time, dose: 360.0 mg/kg/injection, schedule: Q01DX001 (ip), vehicle: carboxymethylcellulose (CMC)): 140 and 148 % of control | survivor count (T/C endpoint: mean survival time, dose: 536.0 mg/kg/injection, schedule: Q01DX001 (ip), vehicle: carboxymethylcellulose (CMC)): 6 of 6 | survivor count (T/C endpoint: mean survival time, dose: 804.0 mg/kg/injection, schedule: Q01DX001 (ip), vehicle: carboxymethylcellulose (CMC)): 1 of 6

CCC(=O)NC1=C(N2CC2)C(=O)C(NC(=O)CC)=C(N2CC2)C1=O
T/C (T/C endpoint: mean survival time, dose: 1.0 mg/kg/injection, schedule: Q01DX009 (ip), vehicle: saline): 129 % of control | survivor count (T/C endpoint: mean survival time, dose: 4.0 mg/kg/injection, schedule: Q01DX009 (ip), vehicle: saline): 6 of 6

C=CC(CN1CC1)OC(C)=O (stereo not drawn)
T/C (T/C endpoint: mean survival time, dose: 3.75 mg/kg/injection, schedule: Q01DX Z (ip), vehicle: saline): 139 % of control | T/C (T/C endpoint: mean survival time, dose: 7.5 mg/kg/injection, schedule: Q01DX Z (ip), vehicle: saline): 133 % of control | T/C (T/C endpoint: mean survival time, dose: 16.75 mg/kg/injection, schedule: Q01DX001 (ip), vehicle: saline): 129 % of control | T/C (T/C endpoint: mean survival time, dose: 20.0 mg/kg/injection, schedule: Q01DX Z (ip), vehicle: saline): 125 % of control | T/C (T/C endpoint: mean survival time, dose: 25.0 mg/kg/injection, schedule: Q01DX001 (ip), vehicle: saline): 135 % of control

Cc1nc(N)nc(N)c1-c1ccc(Cl)c(Cl)c1
T/C (T/C endpoint: median survival time, dose: 2.5 mg/kg/injection, schedule: Q01DX009 (ip), vehicle: saline): 138 % of control | survivor count (T/C endpoint: median survival time, dose: 20.0 mg/kg/injection, schedule: Q01DX009 (ip), vehicle: saline): 10 of 10

O=NN(CCF)C(=O)NC1CSCSC1
T/C (T/C endpoint: mean survival time, dose: 15.0 mg/kg/injection, schedule: Q01DX001 (ip), vehicle: other): 144 % of control | T/C (T/C endpoint: mean survival time, dose: 18.0 mg/kg/injection, schedule: Q01DX001 (ip), vehicle: other): 137 % of control | survivor count (T/C endpoint: mean survival time, dose: 61.5 mg/kg/injection, schedule: Q01DX001 (ip), vehicle: other): 6 of 10

N#CCCNC(=O)N(CCC#N)N=O
survivor count (T/C endpoint: mean survival time, dose: 375.0 mg/kg/injection, schedule: Q01DX001 (ip), vehicle: carboxymethylcellulose (CMC)): 2 of 10 | survivor count (T/C endpoint: mean survival time, dose: 562.0 mg/kg/injection, schedule: Q01DX001 (ip), vehicle: carboxymethylcellulose (CMC)): 3 of 10
